In publication PMC5414047:
Results are given in words; binding and its absence hold for the method and conditions named. Binding seen in cells or lysates may run through a third protein. Some binding calls cover weakened binding; strength is not graded here.

Target: SMAD2, endogenous (human (endogenous in MDA-MB-231)), Q15796
Test: co-IP; anti-SMAD2/3 immunoprecipitants from MDA-MB-231 cells treated with TGF-β; control, FAF1-depleted (shFAF1#1, #2) or Myc-FAF1 fl/UBX-deleted expressing cells
Conditions: remark: other sources report otherwise

binding: binds
B1: SMAD4, endogenous, Q13485 1-552 (protein)
chain: MDNMSITNTPTSNDACLSIVHSLMCHRQGGESETFAKRAIESLVKKLKEKKDELDSLITAITTNGAHPSKCVTIQRTLDGRLQVAGRKGFPHVIYARLWRWPDLHKNELKHVKYCQYAFDLKCDSVCVNPYHYERVVSPGIDLSGLTLQSNAPSSMMVKDEYVHDFEGQPSLSTEGHSIQTIQHPPSNRASTETYSTPALLAPSESNATSTANFPNIPVASTSQPASILGGSHSEGLLQIASGPQPGQQQNGFTGQPATYHHNSTTTWTGSRTAPYTPNLPHHQNGHLQHHPPMPPHPGHYWPVHNELAFQPPISNHPAPEYWCSIAYFEMDVQVGETFKVPSSCPIVTVDGYVDPSGGDRFCLGQLSNVHRTEAIERARLHIGKGVQLECKGEGDVWVRCLSDHAVFVQSYYLDREAGRAPGDAVHKIYPSAYIKVFDLRQCHRQMQQQAATAQAAAAAQAAAVAGNIPGPGSVGGIAPAISLSAAAGIGVDDLRRLCILRMSFVKGWGPDYPRQSIKETPCWIEIHLHRALQLLDEVLHTMPIADPQPLD
